These are yes or no findings as the source states them, for the method shown. Binding seen in cells or lysates may run through a third protein. Binding can be weak; no strength is given.
Target: OsMADS63-FLAG transiently expressed in rice protoplasts (rice (Oryza sativa)) (UniProt B7F466)
Assay: co-IP

binding: binds
Substance: OsSIP1-HA transiently expressed in rice protoplasts (from UniProt Q10T66)
